Test results as given in PubChem BioAssay AID2417 (National Center for Advancing Translational Sciences (NCATS), 2010).
Out of some 140,000 compounds screened, about 4,300 (3.1%) were called active. The inconclusive results got no clear call from the source; some entries with a clear call stand among them for comparison.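 Rule for the calls: active = readout at or below -70, meaning at least 70% loss of cells showing the perinucleolar compartment, a nuclear body marking cancer cells; inconclusive = readout between -30 and a set limit; inactive = the rest.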

Assay: High Content Assay for Compounds that inhibit the Assembly of the Perinucleolar Compartment;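 note: plate controls were DMSO wells for no effect and camptothecin positive control wells for full effect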
Settings: PC3M PTB-GFP, PNC prevalence imaging, 16 h; at 10 µM; active compounds read low
Summary of the method: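 PC3M cells stably expressing PTB-GFP, 750–1000 cells/well, treated 16 h at 37 °C with compound (23 nl of library stock), in duplicate. After paraformaldehyde fixation and Hoechst stain, imaged at 20x; PNC prevalence scored by image analysis.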

Compound	activity change (PNC), negative = inhibition
CCOC(=O)c1cccc(NC(=O)Cn2c(CC(=O)N3CCCC3)nc3ccccc32)c1	inconclusive: -48.3%
CC(C)OC(=O)C(C#N)c1nc2ccccc2nc1N1CCN(Cc2ccc3c(c2)OCO3)CC1 (centres undefined)	inconclusive: -69.5%
c1ccc(-n2nnnc2-c2cnc(-c3cccnc3)nc2-c2cccs2)cc1	inconclusive: -35.2%
Cc1ccc(NC(=O)CNC(=O)c2ccccc2F)cc1Cl	inconclusive: -63.6%
COc1ccc(C(=O)NC(=O)Nc2ncccc2C)cc1	inconclusive: -57.9%
CC1=C(C(=O)OC(C)C)C(c2ccsc2)NC(=O)N1C (centres undefined)	inconclusive: -35%
CNC(=O)c1sc(-c2ccc(Cl)cc2)nc1C	active: -89.9%
Cc1cc(N2C(=O)NC(=O)CC2C)c(C)cc1C(C)C (centres undefined)	inconclusive: -31%
CCn1c(SCC(=O)N2CCN(c3ccccc3)CC2)nnc1-c1ccncc1	active: -100%
COc1ccc(Nc2ncnc3scc(-c4ccc(OC)cc4)c23)cc1	inconclusive: -44.3%
Cc1cc(NC(=O)CN2CCN(C/C=C/c3ccccc3)CC2)c([N+](=O)[O-])cc1C	inactive: 2.14%
O=C(N/N=C/c1cccs1)c1cc(-c2ccncc2)nc2ccccc12	active: -109%
Cc1ccccc1C(=O)Nc1ccccc1	inconclusive: -36.9%
CC1(C)CN(O)CCN1O	inconclusive: -52.3%
N#C/C(C(=O)N1CCCCC1)=C1/N=C(N)c2ccccc21	inactive: -26.6%
CCCNC(=O)Cn1c(=O)/c(=C\c2ccc(-c3cccc([N+](=O)[O-])c3)o2)s/c1=C\C(=O)C(C)(C)C	inconclusive: -45.5%
CCOc1ncccc1C(=O)N(CC)CC(=O)Nc1ccc(NC(C)=O)cc1	inconclusive: -39.4%
O=C(Nc1cccc(O)c1)c1ccc(Br)cc1	active: -128%
Cc1cc(O)c2c(-c3ccccc3)cc(=O)oc2c1	inconclusive: -53.6%
CCOc1ccc(NC(=S)Nc2ccc3nsnc3c2)cc1	inactive: 1.14%
Cc1ccc(S(=O)(=O)Oc2cccc(/C=N/n3cnnc3)c2)cc1	inactive: 17.6%
COc1ccc(S(=O)(=O)Nc2ccccc2C(=O)Nc2nc(-c3ccc(F)cc3)cs2)cc1OC	inactive: 3.29%
COc1ccc([N+](=O)[O-])cc1NC(=O)c1cn(-c2ccc(Cl)cc2)c(=O)c2ccccc12	inconclusive: -62.5%

An excerpt of these results, as a markdown table:

| Compound | activity change (PNC), negative = inhibition |
| --- | --- |
| Cc1ccc(NC(=O)CNC(=O)c2ccccc2F)cc1Cl | inconclusive: -63.6% |
| CCCNC(=O)Cn1c(=O)/c(=C\c2ccc(-c3cccc([N+](=O)[O-])c3)o2)s/c1=C\C(=O)C(C)(C)C | inconclusive: -45.5% |

The list goes on:

Compound	activity change (PNC), negative = inhibition
O=C(Cc1ccc(F)cc1)Nc1ccc(F)c([N+](=O)[O-])c1	inconclusive: -44.2%
O=C(CSc1ncnc2ccccc12)NCCCO	inconclusive: -68.2%
Cc1ccsc1-c1n[nH]c(=S)n1CC(C)C	inconclusive: -67.5%
COc1ccc(S(=O)(=O)NCC(c2cccnc2)N2CCN(c3ccccc3OC)CC2)cc1C (centres undefined)	inactive: -12.7%
CCOC(=O)c1cnc2nc[nH]n2c1=O	inconclusive: -30.5%
Cc1ccc(NC(=O)C(OC(=O)c2ccc(F)cc2)c2ccccc2)cc1Cl (centres undefined)	inconclusive: -54.2%
Cc1ccc(C)c(S(=O)(=O)N2C(=S)NC(=O)C2C(C)C)c1 (centres undefined)	inconclusive: -50.3%
CCC(c1nc2ccccc2c(=O)n1-c1nc2ccccc2s1)N1C(=O)c2ccccc2C1=O (centres undefined)	inconclusive: -45.4%
O=c1cc(N2CCC3(CC2)OCCO3)[nH]c(=O)n1-c1ccc(Cl)cc1	inconclusive: -33.9%
Cc1cccc(NC(=O)CSc2nnc(Cn3nnc(-c4ccccc4)n3)n2-c2ccccc2)c1	inconclusive: -45.1%
Cc1cccc(-n2[nH]c3c4c(ccc3c2=O)C(=O)c2ccccc2C4=O)c1	inconclusive: -33.4%
Cn1c(=O)c(-c2ccccc2)nn2c3ccccc3nc12	inconclusive: -55.2%
CS(=O)(=O)N(CC(=O)NCc1ccccc1)C1CCCCC1	inconclusive: -42.5%
CC1(C)CC(=O)C=C(NC2CCCCCC2)C1	inconclusive: -69.2%
Cc1ccc(O)c(CNn2cnnc2)c1	inconclusive: -50.8%
C=CCn1c(=O)c2ccc(C(=O)NCc3ccccc3)cc2n(Cc2ccc(C)cc2)c1=O	inactive: 30.8%
COc1ccc(S(=O)(=O)Nc2ccc(Oc3ncccn3)c(Cl)c2)cc1	inactive: 0.461%
Cc1ccc2[nH]c3c(c2c1)CN(C(=O)CN1CCN(c2ccccc2F)CC1)CC3	inactive: 9.66%
COc1ccc(NC(=O)CC2Oc3ccc(C)cc3NC2=O)cc1 (centres undefined)	inconclusive: -52.2%
CCc1ccc(N2CC(C(=O)NC3=NCCS3)CC2=O)cc1 (centres undefined)	inactive: 10.4%
Cc1ccc(CC(=O)Nc2nc3ccccc3[nH]2)cc1C	inactive: -13.7%
CCC1CCCCN1C(=O)CSc1nc(N)c(NC(=O)c2ccc(OC)c(OC)c2)c(=O)[nH]1 (centres undefined)	inconclusive: -32.2%
Cc1ccc(S(=O)(=O)N2CCOCC2)cc1C(=O)OCC(=O)N1c2ccccc2NC(=O)C1(C)C	inconclusive: -39.7%

Three compounds from above, ordered by heavy-atom count, smallest number first.
Compound	activity change (PNC), negative = inhibition
CC1(C)CC(=O)C=C(NC2CCCCCC2)C1	inconclusive: -69.2%
Cc1ccc(C)c(S(=O)(=O)N2C(=S)NC(=O)C2C(C)C)c1 (centres undefined)	inconclusive: -50.3%
COc1ccc(NC(=O)CC2Oc3ccc(C)cc3NC2=O)cc1 (centres undefined)	inconclusive: -52.2%

Next records

Compound	activity change (PNC), negative = inhibition
Cc1ccc(OCCN2C(=O)c3ccccc3C2=O)cc1	inconclusive: -46.9%
COc1ccc(S(=O)(=O)N2CCN(c3ccc(C)cc3C)CC2)cc1OC	active: -82.7%
O=C(NCC(=O)N(c1ccc2c(c1)OCCO2)C(C(=O)NC1CCCC1)c1ccco1)c1ccco1 (centres undefined)	inconclusive: -54.2%
CN(C)C=Nc1ccc2nn(-c3ccccc3)nc2c1	inactive: 71.7%
Cc1sc(N/N=C/c2cccnc2)nc1-c1ccccc1	inconclusive: -61.2%
COC(=O)Cc1c(C)nc2nc(NCc3ccc(Cl)cc3)[nH]n2c1=O	inconclusive: -30.4%
CCC(=O)NC(Nc1cc(C)cc(C)n1)(C(F)(F)F)C(F)(F)F	inconclusive: -37.9%
Cc1noc(/C=C/N(C)C)c1S(=O)(=O)N1CCCC(C(=O)NCc2cccs2)C1 (centres undefined)	inconclusive: -45%
O=C(c1ccccc1)N1CCN(c2ccc([N+](=O)[O-])c(N3CCOCC3)c2)CC1	inconclusive: -36.6%
FC(F)(F)c1cccc(NC(=S)NCC(c2cccnc2)N2CCOCC2)c1 (centres undefined)	inconclusive: -45.7%
CCn1c(C)cc(=S)c2ccccc21	inactive: -28.1%
COc1ccc(-c2ccc(-c3nnn(CC(=O)N4CCOCC4)n3)cc2)cc1	inconclusive: -71%
OC(CSc1c(Cl)cccc1Cl)CN1CCN(c2ccc(F)cc2)CC1 (centres undefined)	inconclusive: -32.7%
COC(=O)CN1C(c2cccc(Cl)c2)=Nc2ccc(Cl)cc2C1c1ccccc1 (centres undefined)	inconclusive: -46.5%
COc1cc2c(cc1NC(=O)C(C)Sc1cccc[n+]1[O-])oc1ccccc12 (centres undefined)	inconclusive: -51.8%
COc1ccc(OC)c(NC(=O)CSc2ccccc2)c1	inactive: -18%
COc1ccc(-c2nnc(SCC(=O)N3CCc4ccccc4C3)o2)cc1	inactive: -4.61%
C=CCn1c(CCNC(=O)c2cccs2)nnc1SCC(=O)c1ccc(Br)cc1	inconclusive: -45.5%
COc1ccc(OC)c(S(=O)(=O)N2CCC(C(=O)NCC3CCCO3)CC2)c1 (centres undefined)	inconclusive: -41.7%
CCOc1ccc(C(=O)Nc2cccc(NC(=O)c3cccs3)c2)cc1[N+](=O)[O-]	inactive: 30.9%
Nc1ncnc2nc(SCCc3ccccc3)[nH]c12	inconclusive: -44.1%
CC(C)NC(=O)C1CCCN(S(=O)(=O)c2ccc(-n3cnnn3)cc2)C1 (centres undefined)	inconclusive: -30.3%
CCOC(=O)N1CCN(S(=O)(=O)c2ccc(C(=O)NNc3nc4c(C)cccc4s3)cc2)CC1	inactive: 30.6%
